In article doi:10.1101/2021.12.07.471635:
No constants are given. Whether binding was seen depends on the method and setting. In cells and extracts the contact can be indirect. Some binding calls cover weakened binding; strength is not graded here.

Sequences of proteins named here, by UniProt entry; tags and fusion partners are left off.
UniProt P51114: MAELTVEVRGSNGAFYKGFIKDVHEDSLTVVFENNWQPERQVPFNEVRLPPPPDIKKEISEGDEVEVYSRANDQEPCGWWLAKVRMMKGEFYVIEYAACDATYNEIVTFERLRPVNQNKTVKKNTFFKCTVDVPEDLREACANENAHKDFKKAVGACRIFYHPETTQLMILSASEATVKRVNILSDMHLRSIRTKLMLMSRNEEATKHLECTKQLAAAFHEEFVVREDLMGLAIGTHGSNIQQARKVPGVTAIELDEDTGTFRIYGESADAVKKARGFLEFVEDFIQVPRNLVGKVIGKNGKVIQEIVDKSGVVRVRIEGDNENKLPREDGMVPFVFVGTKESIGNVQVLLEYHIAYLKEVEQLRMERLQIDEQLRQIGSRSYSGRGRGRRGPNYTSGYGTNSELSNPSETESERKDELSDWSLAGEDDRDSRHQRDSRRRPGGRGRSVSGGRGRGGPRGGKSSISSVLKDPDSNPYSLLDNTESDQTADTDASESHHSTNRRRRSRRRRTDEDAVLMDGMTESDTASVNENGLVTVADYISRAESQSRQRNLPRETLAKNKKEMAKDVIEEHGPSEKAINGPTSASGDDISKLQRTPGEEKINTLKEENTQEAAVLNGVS

Target: Fragile-X-mental retardation related protein 1 (FXR1) (human (endogenous in THP1)) (UniProt P51114)
Test: co-IP

Row | Binder | binding
1 | DDX21 (protein, UniProt Q9NR30 1-783) MPGKLRSDAGLESDTAMKKGETLRKQTEEKEKKEKPKSDKTEEIAEEEETVFPKAKQVKKKAEPSEVDMNSPKSKKAKKKEEPSQNDISPKTKSLRKKKEPIEKKVVSSKTKKVTKNEEPSEEEIDAPKPKKMKKEKEMNGETREKSPKLKNGFPHPEPDCNPSEAASEESNSEIEQEIPVEQKEGAFSNFPISEETIKLLKGRGVTFLFPIQAKTFHHVYSGKDLIAQARTGTGKTFSFAIPLIEKLHGELQDRKRGRAPQVLVLAPTRELANQVSKDFSDITKKLSVACFYGGTPYGGQFERMRNGIDILVGTPGRIKDHIQNGKLDLTKLKHVVLDEVDQMLDMGFADQVEEILSVAYKKDSEDNPQTLLFSATCPHWVFNVAKKYMKSTYEQVDLIGKKTQKTAITVEHLAIKCHWTQRAAVIGDVIRVYSGHQGRTIIFCETKKEAQELSQNSAIKQDAQSLHGDIPQKQREITLKGFRNGSFGVLVATNVAARGLDIPEVDLVIQSSPPKDVESYIHRSGRTGRAGRTGVCICFYQHKEEYQLVQVEQKAGIKFKRIGVPSATEIIKASSKDAIRLLDSVPPTAISHFKQSAEKLIEEKGAVEALAAALAHISGATSVDQRSLINSNVGFVTMILQCSIEMPNISYAWKELKEQLGEEIDSKVKGMVFLKGKLGVCFDVPTASVTEIQEKWHDSRRWQLSVATEQPELEGPREGYGGFRGQREGSRGFRGQRDGNRRFRGQREGSRGPRGQRSGGGNKSNRSQNKGQKRSFSKAFGQ | binds
2 | NOLC1 (protein, UniProt Q14978 1-699) MADAGIRRVVPSDLYPLVLGFLRDNQLSEVANKFAKATGATQQDANASSLLDIYSFWLKSAKVPERKLQANGPVAKKAKKKASSSDSEDSSEEEEEVQGPPAKKAAVPAKRVGLPPGKAAAKASESSSSEESSDDDDEEDQKKQPVQKGVKPQAKAAKAPPKKAKSSDSDSDSSSEDEPPKNQKPKITPVTVKAQTKAPPKPARAAPKIANGKAASSSSSSSSSSSSDDSEEEKAAATPKKTVPKKQVVAKAPVKAATTPTRKSSSSEDSSSDEEEEQKKPMKNKPGPYSSVPPPSAPPPKKSLGTQPPKKAVEKQQPVESSEDSSDESDSSSEEEKKPPTKAVVSKATTKPPPAKKAAESSSDSSDSDSSEDDEAPSKPAGTTKNSSNKPAVTTKSPAVKPAAAPKQPVGGGQKLLTRKADSSSSEEESSSSEEEKTKKMVATTKPKATAKAALSLPAKQAPQGSRDSSSDSDSSSSEEEEEKTSKSAVKKKPQKVAGGAAPSKPASAKKGKAESSNSSSSDDSSEEEEEKLKGKGSPRPQAPKANGTSALTAQNGKAAKNSEEEEEEKKKAAVVVSKSGSLKKRKQNEAAKEAETPQAKKIKLQTPNTFPKRKKGEKRASSPFRRVREEEIEVDSRVADNSFDAKRGAAGDWGERANQVLKFTKGKSFRHEKTKKKRGSYRGGSISVQVNSIKFDSE | binds
